Test results published in paper PMC11094923.
Results are given in words; binding and its absence hold for the method and conditions named. In cells and extracts the contact can be indirect. Some binding calls cover weakened binding; strength is not graded here. Sequences can lack the tags named with a protein.

Target: T1, Flag-tagged SDC1 (UniProt P18827)
T1 sequence: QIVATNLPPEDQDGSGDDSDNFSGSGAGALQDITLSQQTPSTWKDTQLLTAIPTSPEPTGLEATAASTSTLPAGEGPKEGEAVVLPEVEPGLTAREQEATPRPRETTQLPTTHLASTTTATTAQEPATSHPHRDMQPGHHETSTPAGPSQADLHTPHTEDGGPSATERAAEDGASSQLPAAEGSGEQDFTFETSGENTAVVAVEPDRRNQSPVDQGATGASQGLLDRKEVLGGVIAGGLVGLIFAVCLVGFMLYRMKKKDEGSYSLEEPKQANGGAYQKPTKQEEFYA
Test: co-IP; HCE-2 cells transiently transfected with 3 ug pFLAG-plasmid and 3 ug MYC-plasmid; lysed by sonication in IP buffer 24 h after transfection; anti-FLAG or anti-MYC antibody, protein G agarose, 4 °C overnight; Western blot for CXCL14 and SDC1

binding: binds
B1: MYC-tagged CXCL14 (ligand, UniProt O95715 35-111)
chain: SKCKCSRKGPKIRYSDVKKLEMKPKYPHCEEKMVIITTKSVSRYRGQEHCLHPKLQSTKRFIKWYNAWNEKRRVYEE
